{"sequences": {"note": "Protein sequences, listed by entry. Tags and fused reporters are not part of them. Lines headed by an entry give the natural chain unless they say otherwise; changes in a name come on top. Chains listed by the source or under a name are the forms on record and can include a tag or linker.", "UniProt Q96PU5": "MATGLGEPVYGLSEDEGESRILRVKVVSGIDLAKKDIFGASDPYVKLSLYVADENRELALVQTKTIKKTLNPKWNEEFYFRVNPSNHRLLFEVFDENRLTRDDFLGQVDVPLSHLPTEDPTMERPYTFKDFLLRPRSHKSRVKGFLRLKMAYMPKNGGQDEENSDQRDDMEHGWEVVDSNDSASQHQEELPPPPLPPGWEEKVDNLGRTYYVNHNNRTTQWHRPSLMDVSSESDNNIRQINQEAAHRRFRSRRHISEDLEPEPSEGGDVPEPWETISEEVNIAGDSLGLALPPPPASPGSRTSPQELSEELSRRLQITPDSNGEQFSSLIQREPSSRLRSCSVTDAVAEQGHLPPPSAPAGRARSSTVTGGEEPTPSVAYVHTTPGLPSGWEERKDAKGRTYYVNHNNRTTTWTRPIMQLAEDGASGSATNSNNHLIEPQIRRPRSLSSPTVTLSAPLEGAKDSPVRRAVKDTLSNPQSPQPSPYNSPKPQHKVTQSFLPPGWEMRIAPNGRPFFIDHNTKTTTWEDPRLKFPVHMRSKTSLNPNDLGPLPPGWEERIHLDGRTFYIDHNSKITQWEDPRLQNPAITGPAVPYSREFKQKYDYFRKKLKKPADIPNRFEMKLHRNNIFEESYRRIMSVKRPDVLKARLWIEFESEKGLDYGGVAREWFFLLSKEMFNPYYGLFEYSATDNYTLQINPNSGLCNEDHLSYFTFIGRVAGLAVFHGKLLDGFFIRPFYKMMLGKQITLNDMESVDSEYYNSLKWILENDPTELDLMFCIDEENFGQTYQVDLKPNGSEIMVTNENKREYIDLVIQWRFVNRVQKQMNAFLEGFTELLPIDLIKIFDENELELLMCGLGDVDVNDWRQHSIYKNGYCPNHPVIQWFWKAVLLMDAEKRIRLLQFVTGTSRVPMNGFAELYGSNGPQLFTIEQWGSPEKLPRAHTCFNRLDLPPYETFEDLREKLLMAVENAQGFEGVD", "UniProt Q6XZF7": "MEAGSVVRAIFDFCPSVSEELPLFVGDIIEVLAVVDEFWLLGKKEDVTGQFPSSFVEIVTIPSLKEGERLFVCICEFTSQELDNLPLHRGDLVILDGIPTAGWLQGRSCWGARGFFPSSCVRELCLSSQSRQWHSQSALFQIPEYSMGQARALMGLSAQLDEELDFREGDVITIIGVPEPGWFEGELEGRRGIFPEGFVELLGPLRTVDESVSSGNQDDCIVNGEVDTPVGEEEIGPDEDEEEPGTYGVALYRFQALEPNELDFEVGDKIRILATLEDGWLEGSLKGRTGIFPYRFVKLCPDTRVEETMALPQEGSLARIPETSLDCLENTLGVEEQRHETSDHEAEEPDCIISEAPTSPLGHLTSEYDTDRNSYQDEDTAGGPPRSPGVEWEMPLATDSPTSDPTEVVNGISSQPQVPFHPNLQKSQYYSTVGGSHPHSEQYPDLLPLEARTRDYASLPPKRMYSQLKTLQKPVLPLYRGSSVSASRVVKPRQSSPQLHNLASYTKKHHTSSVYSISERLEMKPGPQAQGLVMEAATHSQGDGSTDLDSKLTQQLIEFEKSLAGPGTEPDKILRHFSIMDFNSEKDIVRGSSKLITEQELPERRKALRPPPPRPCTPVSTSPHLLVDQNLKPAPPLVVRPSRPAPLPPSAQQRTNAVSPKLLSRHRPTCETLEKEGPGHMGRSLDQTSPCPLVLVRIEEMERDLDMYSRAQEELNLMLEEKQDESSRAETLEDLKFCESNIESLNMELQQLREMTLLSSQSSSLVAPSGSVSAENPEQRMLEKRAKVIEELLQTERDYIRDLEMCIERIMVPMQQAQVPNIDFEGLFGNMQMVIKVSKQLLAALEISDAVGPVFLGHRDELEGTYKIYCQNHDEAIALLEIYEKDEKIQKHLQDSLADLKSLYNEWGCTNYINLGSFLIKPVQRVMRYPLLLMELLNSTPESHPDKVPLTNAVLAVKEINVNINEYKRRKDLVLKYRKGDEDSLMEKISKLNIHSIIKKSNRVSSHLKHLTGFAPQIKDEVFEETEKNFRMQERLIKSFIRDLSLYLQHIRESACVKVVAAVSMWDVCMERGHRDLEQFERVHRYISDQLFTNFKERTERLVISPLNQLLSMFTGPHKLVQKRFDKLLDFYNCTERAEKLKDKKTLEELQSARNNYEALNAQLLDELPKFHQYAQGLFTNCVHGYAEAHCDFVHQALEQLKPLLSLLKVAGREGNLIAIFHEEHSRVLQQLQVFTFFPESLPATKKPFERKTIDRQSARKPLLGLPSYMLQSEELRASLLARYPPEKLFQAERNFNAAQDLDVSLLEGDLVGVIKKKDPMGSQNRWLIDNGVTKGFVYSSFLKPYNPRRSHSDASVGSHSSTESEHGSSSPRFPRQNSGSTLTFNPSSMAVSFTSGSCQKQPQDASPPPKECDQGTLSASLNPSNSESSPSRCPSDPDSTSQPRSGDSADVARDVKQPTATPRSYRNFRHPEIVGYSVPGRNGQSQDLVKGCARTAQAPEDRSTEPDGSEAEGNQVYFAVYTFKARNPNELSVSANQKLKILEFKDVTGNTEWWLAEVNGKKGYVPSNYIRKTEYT", "HA-DNMBP 3ΔPY (triple PY motif mutant) (Q6XZF7, form named)": "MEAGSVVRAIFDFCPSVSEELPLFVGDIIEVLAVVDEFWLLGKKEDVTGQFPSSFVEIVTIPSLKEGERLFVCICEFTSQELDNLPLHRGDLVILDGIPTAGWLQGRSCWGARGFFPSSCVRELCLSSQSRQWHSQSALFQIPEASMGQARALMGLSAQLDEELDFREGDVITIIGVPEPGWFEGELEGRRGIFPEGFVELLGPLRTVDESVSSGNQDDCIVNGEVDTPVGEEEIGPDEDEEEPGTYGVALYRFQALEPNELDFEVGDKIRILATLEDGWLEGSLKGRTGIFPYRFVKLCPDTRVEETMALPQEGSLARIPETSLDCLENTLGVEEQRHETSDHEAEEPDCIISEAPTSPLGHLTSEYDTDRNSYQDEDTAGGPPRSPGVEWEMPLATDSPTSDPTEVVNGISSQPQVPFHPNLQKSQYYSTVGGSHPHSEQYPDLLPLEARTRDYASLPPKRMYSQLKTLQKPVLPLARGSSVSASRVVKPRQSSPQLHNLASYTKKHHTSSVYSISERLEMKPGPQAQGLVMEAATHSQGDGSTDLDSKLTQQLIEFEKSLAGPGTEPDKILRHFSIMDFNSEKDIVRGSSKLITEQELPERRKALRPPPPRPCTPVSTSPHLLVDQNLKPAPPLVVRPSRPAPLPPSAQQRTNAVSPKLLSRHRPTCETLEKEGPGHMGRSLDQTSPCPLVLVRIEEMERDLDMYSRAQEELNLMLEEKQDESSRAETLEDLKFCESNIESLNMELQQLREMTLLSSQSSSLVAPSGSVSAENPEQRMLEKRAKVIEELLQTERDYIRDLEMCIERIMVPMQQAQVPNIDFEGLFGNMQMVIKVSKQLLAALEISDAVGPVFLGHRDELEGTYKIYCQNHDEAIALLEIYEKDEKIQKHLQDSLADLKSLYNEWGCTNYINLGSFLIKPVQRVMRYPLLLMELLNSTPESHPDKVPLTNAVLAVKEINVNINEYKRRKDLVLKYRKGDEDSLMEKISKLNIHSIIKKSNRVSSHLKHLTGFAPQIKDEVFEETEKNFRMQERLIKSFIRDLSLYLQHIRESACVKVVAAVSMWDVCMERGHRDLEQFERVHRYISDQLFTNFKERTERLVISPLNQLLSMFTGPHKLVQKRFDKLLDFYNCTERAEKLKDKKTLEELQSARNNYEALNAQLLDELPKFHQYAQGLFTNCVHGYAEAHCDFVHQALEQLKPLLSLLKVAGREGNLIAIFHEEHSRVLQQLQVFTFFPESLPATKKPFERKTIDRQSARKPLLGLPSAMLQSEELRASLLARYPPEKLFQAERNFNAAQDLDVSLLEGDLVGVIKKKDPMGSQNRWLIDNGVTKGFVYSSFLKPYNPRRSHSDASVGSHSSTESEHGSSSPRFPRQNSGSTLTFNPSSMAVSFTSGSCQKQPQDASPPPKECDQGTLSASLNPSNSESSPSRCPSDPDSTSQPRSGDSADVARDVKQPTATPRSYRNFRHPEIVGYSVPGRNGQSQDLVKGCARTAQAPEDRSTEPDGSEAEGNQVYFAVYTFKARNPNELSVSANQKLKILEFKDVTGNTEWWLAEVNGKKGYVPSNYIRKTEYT"}, "source": "paper PMC12569825", "biological_target": "V5-tagged Nedd4-2 (WT) (UniProt Q96PU5)", "experiment": "co-IP; HEK293T or HeLa cells transfected 2 days, iso- or hyper-osmotic medium (600 mOSM) for 15 min; 1 mg cleared lysate (1% Triton X-100, 150 mM NaCl, Hepes pH 7.5); Nedd4-2 immunoprecipitated with anti-V5 affinity beads, DNMBP detected by immunoblot for HA or DNMBP", "note": "Results are given in words; binding and its absence hold for the method and conditions named. In cells and extracts the contact can be indirect. Some binding calls cover weakened binding; strength is not graded here."}
{"substance": "HA-DNMBP Y479A (from UniProt Q6XZF7 1-1577)", "values": [{"measurement": "binding", "result": "binds"}]}
{"substance": "HA-DNMBP Y145A (from UniProt Q6XZF7 1-1577)", "values": [{"measurement": "binding", "result": "binds"}]}
{"substance": "HA-tagged Dynamin Binding Protein (DNMBP) (from UniProt Q6XZF7 1-1577)", "values": [{"measurement": "binding", "result": "binds"}]}
{"substance": "HA-DNMBP Y1269A (from UniProt Q6XZF7 1-1577)", "values": [{"measurement": "binding", "result": "binds"}]}
{"substance": "endogenous Dynamin Binding Protein (DNMBP) (from UniProt Q6XZF7 1-1577)", "values": [{"measurement": "binding", "result": "binds"}]}
{"substance": "HA-DNMBP 3ΔPY (triple PY motif mutant) (from UniProt Q6XZF7 1-1577)", "values": [{"measurement": "binding", "result": "binds weakly"}]}
